HELM strings list residues between dots; [ac] is acetyl, [am] amide, other brackets name non-standard units.

Drawing on paper PMC9960274 (Molecules, 2023), this text covers step yield, isolated mass and isolated yield for twelve substances.

The first data set is described as follows: general procedure: peptide synthesis; 2-chlorotrityl chloride (CTC) resin, 100-200 mesh, loaded with Fmoc-Pro. The settings on record: coupling step.
As to “Ac-D-Asp(OtBu)-Hmg(MA)-Nle-Nle-Leu-Pro-Trp-Pro-OH”, the step yield is 33% yield. Take “Ac-D-Asp(OtBu)-Glu(MA)-Nle-Nle-Leu-Pro-Trp-Pro-OH”: the step yield turned out to be 10% yield. Same read-out and setting: with “RhB-Pro-6AH-D-Asp(OtBu)-Glu(MA)-Nle-Nle-Leu-Pro-Trp-Pro-OH” the figure was 15%; with “Ac-D-Asp(OtBu)-Asp(MA)-Nle-Nle-Leu-Pro-Trp-Pro-OH”, 16% yield.

Staying with this data set, now noted: late stage modification step.
As for “Ac-D-Asp-Glu(MA)-Nle-Nle-Leu-Pro-Trp-Pro-OH”, the step yield was found to be 17% yield. Consider “PEPTIDE1{[ac].[dD].[Hmg(MA)].[Nle].[Nle].L.P.W.P}$$$$V2.0”, for which the step yield is 12% yield.

Take “PEPTIDE1{[ac].[dD].[Asp(MA)].[Nle].[Nle].L.P.W.P}$$$$V2.0”: the step yield is on record as 14% yield. Substance “RhB-Pro-6AH-D-Asp-Glu(MA)-Nle-Nle-Leu-Pro-Trp-Pro-OH” returned a step yield of 28%.

The next data set can be described thus: general procedure: peptide synthesis; Fmoc-Pro-CTC resin 10. The settings on record: whole synthesis, scale 0.1 mmol.
Turning to “Ac-D-Asp-Dap(Acrylamide)-Nle-Nle-Leu-Pro-Trp-Pro-OH”, the isolated mass is 10.0 mg and the isolated yield came out at 10% yield. The corresponding values for “PEPTIDE1{[ac].[dD].[Dab(Acrylamide)].[Nle].[Nle].L.P.W.P}$$$$V2.0” are 8.6 mg and 8% yield. The corresponding values for “PEPTIDE1{[ac].[dD].[Orn(Acrylamide)].[Nle].[Nle].L.P.W.P}$$$$V2.0” are 5.0 mg and 5% yield. As for “PEPTIDE1{[ac].[dD].[Lys(Acrylamide)].[Nle].[Nle].L.P.W.P}$$$$V2.0”, the isolated mass is 6.7 mg and the isolated yield was found to be 6% yield.
